# Measurements from PubChem BioAssay AID651640 (Broad Institute, 2012).
# About 6,000 (1.7%) of roughly 350,000 compounds were called active. The shares of active, inactive and inconclusive entries below differ from those in the screen. Cut-off read from the data, not from the text of the source: active = CPE inhibition above about 20% (passing the limit was not always enough); inconclusive = no clear call, values can overlap the other calls; tested in BHK-21 cells. More than one record can exist for a structure, and the calls need not agree.
# Assay: protection of cells from dengue 2 killing – plate reader, single concentration, primary screen (AID 651640);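 note: 0% = median of neutral control wells and 100% = median of positive control wells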
# Conditions: DENV2-infected cells, cytopathic effect rescue, at 9.99 µM, active compounds read high
row,Compound,CPE inhibition
1,COc1ccccc1Oc1ccc(N2CC(C(=O)OCC(=O)c3ccc(F)cc3)CC2=O)cc1 (centres undefined),inconclusive: 95.4%
2,CO[C@@H](C(=O)N(C)C[C@H]1OCc2ccccc2-c2c(n(C)c3ccccc23)C(=O)N([C@@H](C)CO)C[C@@H]1C)c1ccccc1,inconclusive: 39.1%
3,O=C(NCCc1ccccc1)[C@H]1[C@H](CO)[C@H]2Cn3c(cccc3=O)[C@H]2N1Cc1cccnc1,inconclusive: 41.2%
4,CN(C)C(=O)c1ccc(-c2ccc([C@H]3[C@@H](CO)N4C(=O)CN(C(=O)C5CCCC5)C[C@@H]34)cc2)cc1,inactive: -21.2%
5,CCOc1ccc2nc(NCCNC(=O)c3cc(OC)c(OC)c(OC)c3)c(C#N)cc2c1,inconclusive: 29.9%
6,C[C@@H]1CCCCO[C@H](CN(C)Cc2ccccc2)[C@H](C)CN([C@H](C)CO)C(=O)c2cc(NS(=O)(=O)c3ccccc3)ccc2O1,inactive: 4.58%
7,C[C@@H]1CN([C@@H](C)CO)C(=O)CCCn2nncc2CO[C@@H]1CN(C)C(=O)Nc1ccnc(N2CCOCC2)c1,inconclusive: 20.4%
8,Cc1noc(C)c1S(=O)(=O)Nc1ccc2c(c1)C(=O)N([C@H](C)CO)C[C@H](C)[C@@H](CN(C)S(=O)(=O)c1ccccc1)OCCCC[C@H](C)O2,inactive: -16.2%
9,C[C@@H]1CN([C@H](C)CO)C(=O)c2cccc(NS(=O)(=O)c3cccs3)c2O[C@H]1CN(C)S(=O)(=O)c1ccccc1,inconclusive: 21.9%
10,Cc1cc(C)cc(N(CC(=O)NC2CCC(C)CC2)S(=O)(=O)c2c(C)[nH]c(=O)[nH]c2=O)c1 (centres undefined),inconclusive: 36.9%
11,OC[C@@H]1CN(Cc2ccc(-c3ccccc3)cc2)C[C@H](n2cnc3c(NCc4ccncc4)ncnc32)O1,inconclusive: 30.7%
12,O=C(C[C@H]1C=C[C@H](NC(=O)Nc2ccc(F)cc2)[C@H](CO)O1)NCc1ccccn1,inactive: 16.6%
13,CCCC1CC(CSc2ncn[nH]2)OC1=O (centres undefined),inconclusive: 31.4%
14,C[C@@H]1CN([C@@H](C)CO)C(=O)c2cc(NC(=O)CCCCCC(=O)Nc3ccccc3N)ccc2O[C@@H]1CN(C)Cc1ccc2c(c1)OCO2,active: 20.5%
15,NC(=O)[C@@H]1CCCNc2c(F)cc([N+](=O)[O-])cc2C(=O)N[C@@H](CO)C(=O)N[C@@H](Cc2ccc(O)cc2)C(=O)N1,inconclusive: 24.6%
16,Cc1ccc(NC(=O)CN(C)C(=O)COC(=O)CNS(=O)(=O)c2ccc(F)c(F)c2F)cc1,inconclusive: 43.5%
17,NS(=O)(=O)c1ccc(-c2ccc(/C=C3\SC(=O)NC3=O)o2)cc1,inconclusive: 23.6%
18,O=C(C[C@H]1C[C@H]2c3cc(NS(=O)(=O)c4ccc(F)cc4)ccc3O[C@H]2[C@H](CO)O1)N1CCc2ccccc2C1,inactive: 3.92%
19,CCCCNc1ccc2c(c1)OC[C@@H](C)NS2(=O)=O,inconclusive: 49.2%
20,O=C(CSc1nc2ccccc2c(=O)n1-c1ccccc1F)NC1CC1,active: 21.6%
21,O=C(Nc1nnc(-c2ccc3c(c2)OCCO3)o1)c1ccc(Cc2ccccc2)cc1,inconclusive: 36.7%
22,Cc1ccc(S(=O)(=O)Nc2cccc3c2O[C@@H](CN(C)S(=O)(=O)c2ccc(Cl)cc2)[C@@H](C)CN([C@@H](C)CO)C3=O)cc1,active: 20.8%
23,COc1ccc([C@H]2CC(=O)C[C@@H](CCn3cc(-c4ccc(F)cc4)nn3)O2)cc1,inconclusive: 52.7%

row,Compound,CPE inhibition
1,C[C@@H]1CCCCO[C@@H](CN(C)Cc2ccc(C(=O)O)cc2)[C@@H](C)CN([C@@H](C)CO)C(=O)c2cc(NC(=O)Nc3ccc(F)cc3)ccc2O1,inconclusive: 40%
2,C[C@H](CO)N1C[C@H](C)[C@@H](CN(C)C(=O)Nc2cccc3ccccc23)Oc2c(NS(=O)(=O)c3ccccc3)cccc2C1=O,active: 74.2%
3,CN(C)CCNc1ncnc2c1ncn2[C@H]1CN(Cc2ccc(-c3ccccc3)cc2)C[C@@H](CO)O1,inconclusive: 49.7%
4,O=C(C[C@@H]1CC[C@@H]2[C@H](COC[C@@H](O)CN2Cc2cc(F)ccc2F)O1)NCc1ccc(Oc2ccccc2)cc1,inactive: 1.12%
5,CCCCNC(=NCc1cccc(C(F)(F)F)c1)Nc1ccccc1,inactive: -1.1%
6,C=CCCC(=O)N1CCC(n2nccc2NC(=O)CCCc2ccccc2)CC1,inconclusive: 23.7%
7,O=C(C[C@@H]1C=C[C@@H](NS(=O)(=O)c2ccccc2)[C@H](CO)O1)N1CCC(Cc2ccccc2)CC1,inconclusive: 3.39%
8,CCOc1ccccc1NS(=O)(=O)c1c[nH]c(C(=O)OC)c1,inconclusive: 23.9%
9,CC(C)(C)OC(=O)C(Cc1ccc(OC(C)(C)C)cc1)NC(=O)CNC(=O)OCc1ccccc1 (centres undefined),active: 76.7%
10,COc1ccccc1-c1ccc([C@@H]2[C@H](C#N)N(C(=O)CN(C)C)[C@H]2CO)cc1,inconclusive: 75.4%
11,CNC(=O)C[C@H]1CC[C@H]2[C@@H](COc3ccc(NC(=O)c4ccccc4Cl)cc3C(=O)N2C)O1,inconclusive: 80.7%
12,COc1ccc(S(=O)(=O)N(C)C[C@@H]2Oc3ccc(NC(=O)NC4CCCCC4)cc3C(=O)N([C@H](C)CO)C[C@@H]2C)cc1,inconclusive: 60.2%
13,N=C1SCC(=O)N1c1ncc(Cc2cccc(Cl)c2)s1,inconclusive: 23.3%
14,O=C1c2ccccc2/C(=C\C#Cc2ccccn2)N1c1ccccc1,inconclusive: 40.4%
15,c1ccc(-c2ccc(C(c3ccccc3)n3ccnc3)cc2)cc1 (centres undefined),inconclusive: 34%
16,COc1ccc(C(=O)C[n+]2ccc(N)c(C)c2C)cc1,inconclusive: 26.6%
17,O=C1c2ccccc2C(=O)N1c1ccccc1,inactive: -17.5%
18,CCOc1ccc(C(=O)NCC(=O)N2CC=C(c3ccccc3)CC2)cc1OCC,inconclusive: 40.8%
19,COc1cccc(-c2ccc(C3[C@@H]4CN(C(=O)Nc5ccccc5F)C[C@H]3N4)cc2)c1 (some centres undefined),active: 32.1%
20,N#C[C@@H]1[C@H](c2ccc(C#CC3(O)CCCC3)cc2)[C@H](CO)N1C(=O)C1CCC1,inactive: -8.89%
21,Cc1ccc(S(=O)(=O)N2CCOCC2)cc1NC(=O)CN(C)CC(=O)Nc1cccc(F)c1,active: 82.7%
22,CC1(C)Cc2cccc(OCC(=O)Nc3ccccc3F)c2O1,inconclusive: 22.9%
23,C[C@@H]1CN([C@@H](C)CO)C(=O)c2cc(NS(=O)(=O)c3ccc(Cl)cc3)ccc2O[C@@H](C)CCCCO[C@H]1CN(C)C(=O)Nc1cccc2ccccc12,inactive: -2.63%

# An excerpt of these results, with bars between the fields:
row | Compound | CPE inhibition
6 | C=CCCC(=O)N1CCC(n2nccc2NC(=O)CCCc2ccccc2)CC1 | inconclusive: 23.7%
7 | O=C(C[C@@H]1C=C[C@@H](NS(=O)(=O)c2ccccc2)[C@H](CO)O1)N1CCC(Cc2ccccc2)CC1 | inconclusive: 3.39%
8 | CCOc1ccccc1NS(=O)(=O)c1c[nH]c(C(=O)OC)c1 | inconclusive: 23.9%
9 | CC(C)(C)OC(=O)C(Cc1ccc(OC(C)(C)C)cc1)NC(=O)CNC(=O)OCc1ccccc1 (centres undefined) | active: 76.7%
10 | COc1ccccc1-c1ccc([C@@H]2[C@H](C#N)N(C(=O)CN(C)C)[C@H]2CO)cc1 | inconclusive: 75.4%
11 | CNC(=O)C[C@H]1CC[C@H]2[C@@H](COc3ccc(NC(=O)c4ccccc4Cl)cc3C(=O)N2C)O1 | inconclusive: 80.7%
12 | COc1ccc(S(=O)(=O)N(C)C[C@@H]2Oc3ccc(NC(=O)NC4CCCCC4)cc3C(=O)N([C@H](C)CO)C[C@@H]2C)cc1 | inconclusive: 60.2%
13 | N=C1SCC(=O)N1c1ncc(Cc2cccc(Cl)c2)s1 | inconclusive: 23.3%
14 | O=C1c2ccccc2/C(=C\C#Cc2ccccn2)N1c1ccccc1 | inconclusive: 40.4%
15 | c1ccc(-c2ccc(C(c3ccccc3)n3ccnc3)cc2)cc1 (centres undefined) | inconclusive: 34%
16 | COc1ccc(C(=O)C[n+]2ccc(N)c(C)c2C)cc1 | inconclusive: 26.6%
17 | O=C1c2ccccc2C(=O)N1c1ccccc1 | inactive: -17.5%
18 | CCOc1ccc(C(=O)NCC(=O)N2CC=C(c3ccccc3)CC2)cc1OCC | inconclusive: 40.8%
19 | COc1cccc(-c2ccc(C3[C@@H]4CN(C(=O)Nc5ccccc5F)C[C@H]3N4)cc2)c1 (some centres undefined) | active: 32.1%
20 | N#C[C@@H]1[C@H](c2ccc(C#CC3(O)CCCC3)cc2)[C@H](CO)N1C(=O)C1CCC1 | inactive: -8.89%

# Remaining list, next part

row,Compound,CPE inhibition
1,CC1(C)CC(=O)C/C(=N/NC(=O)COc2ccc3ccccc3c2Br)C1,inconclusive: 30.1%
2,COCc1cccc(-c2csc(C(N)c3ccc(F)c(F)c3)n2)c1 (centres undefined),active: 21.1%
3,CC(C)(C)OC(=O)C[C@H]1C/C=C\C[C@H](CC(=O)N[C@@H](CO)Cc2ccccc2)C(=O)N[C@H](C(C)(C)C)COC1=O,active: 62.6%
4,C[C@@H]1CN([C@@H](C)CO)C(=O)c2cccc(NC(=O)Nc3ccc4c(c3)OCO4)c2O[C@@H]1CN(C)S(=O)(=O)c1cccs1,inactive: -3.49%
5,C[C@H]1CCCCO[C@@H](CN(C)C(=O)CCC(F)(F)F)[C@@H](C)CN([C@@H](C)CO)C(=O)c2cc(NS(=O)(=O)c3ccccc3)ccc2O1,inconclusive: 24.6%
6,C/C(=N\NC(=O)c1ccn(C)n1)c1ccc(NC(=O)c2cccc(F)c2)cc1,inconclusive: 33.9%
7,C#CCNC(=O)C1=C[C@H](c2ccc(C(F)(F)F)cc2)[C@@H](CCCO)[C@H](OCC)O1,inconclusive: 21.6%
8,CN(C)C(=O)C[C@@H]1CC[C@H]2[C@H](COc3ccc(NC(=O)NCc4ccccc4)cc3C(=O)N2C)O1,inconclusive: 23.9%
9,CC(=O)NC12CC3CC(C1)CC(C(=O)Nc1ccc(C)c(S(=O)(=O)N4CCCCCC4)c1)(C3)C2,inactive: -4.48%
10,Cc1c(C(=O)NCc2ccc3c(c2)OCCO3)sc(=O)n1Cc1ccc2c(c1)OCO2,inconclusive: 60.9%
11,Cc1cccc(-c2ccc([C@@H]3[C@@H](CO)N4CCCCN(S(=O)(=O)c5cccc(C)c5)C[C@@H]34)cc2)c1,active: 21%
12,CCOc1ccc(-c2cccc(NC(=O)c3ccco3)c2)nn1,inconclusive: 33.6%
13,CC(=O)Nc1cccc2ncccc12,active: 32%
14,COCCN1C(=O)c2[nH]nc(-c3ccccc3O)c2C1c1ccc(OC)cc1 (centres undefined),inconclusive: 22.2%
15,COc1ccccc1C(=O)NCC(=O)N/N=C/c1ccc2c(c1)OCO2,inconclusive: 23.1%
16,Cc1noc(C)c1NC(=O)Nc1ccc2c(c1)CC(=O)N([C@H](C)CO)C[C@H](C)[C@H](CN(C)S(=O)(=O)c1ccc(Cl)cc1)O2,inactive: 1.8%
17,C/C=C/c1ccc([C@@H]2[C@H](CO)N(CC3CCOCC3)C23CN(S(=O)(=O)CC)C3)cc1,active: 73.3%
18,Cc1ccccc1OCC(=O)NCCCNC(=O)c1ccccn1,inconclusive: 20.2%
19,CCC(=O)N1CC2(C1)[C@H](c1ccccc1)[C@@H](CO)N2S(=O)(=O)Cc1ccccc1,inactive: -14%
20,CCN1C[C@@H]2[C@@H]3C(=O)N(C)C(=O)[C@@H]3[C@](C)(C1=O)N2C(=O)c1ccc(Cl)c(Cl)c1,inconclusive: 73.5%
21,COc1ccccc1Oc1cn[nH]c1-c1ccc(O)cc1O,inconclusive: 20.6%
22,O=C(c1ccccc1)N1C[C@H]2[C@@H](c3ccccc31)[C@@H](CO)N2Cc1cc(F)ccc1F,inactive: -9.56%
23,COc1ccc(N(CC(=O)N2CCC(C)CC2)S(=O)(=O)c2c(C)nn(C)c2C)cc1,inconclusive: 27.9%
